PubChem BioAssay AID1224830, NIAID – 2016
The deposit covers about 18,000 reagents; this is an unselected part. Over the whole deposit, about 2,900 (16%) are marked active. 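Calls are made per well; low scores hint the gene aids the LPS response, high scores that it dampens it.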 Repeated entries: four replicate wells of each siRNA pool.

Assay: 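Host factors that control LPS-induced TNF expression in human macrophages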 (primary screen)
Cell system: human THP-1 monocytic leukaemia cells, TNF dual-luciferase reporter clone, PMA-differentiated to macrophage-like cells
Reagents: siRNA pool against human genes, 50 nM
Timing: LPS for 4 h, given about 3 days after siRNA transfection
Challenge: bacterial LPS (TLR4 ligand), 10 ng/ml
Measured: 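Ratio of firefly to renilla light, scaled to the plate median and expressed as a robust z-score per replicate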
Reading the numbers: TNF reporter robust z-score: higher = stronger TNF reporter response to LPS
Rule for the call: 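Each well counts as active if its z-score is over 2.8 or under -1.5; controls are left without a call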

With NOL3, what does the deposit list?
TNF reporter robust z-score: -1.45; outcome: inactive

How did the screen score NOL3?
TNF reporter robust z-score: -0.56; outcome: inactive

For NOL3, what was measured?
TNF reporter robust z-score: -1.89; outcome: active

With NOL3, how do the results read?
TNF reporter robust z-score: -1.23; outcome: inactive

How did the screen score MTTP?
TNF reporter robust z-score: -0.26; outcome: inactive

For MTTP, how do the results read?
TNF reporter robust z-score: 0.99; outcome: inactive

What did the screen give for MTTP?
TNF reporter robust z-score: 0.77; outcome: inactive

What is on record for MTTP?
TNF reporter robust z-score: 0.4; outcome: inactive

With DBX1, how do the results read?
TNF reporter robust z-score: -1.34; outcome: inactive

With DBX1, what does the deposit list?
TNF reporter robust z-score: -0.43; outcome: inactive

With DBX1, what was measured?
TNF reporter robust z-score: -0.67; outcome: inactive

What is on record for SSTR1?
TNF reporter robust z-score: -1.49; outcome: inactive

What did the screen give for SSTR1?
TNF reporter robust z-score: 0.01; outcome: inactive

What did the screen give for SSTR1?
TNF reporter robust z-score: -0.18; outcome: inactive

With SSTR1, how do the results read?
TNF reporter robust z-score: 0.13; outcome: inactive

With CNGA3, what does the deposit list?
TNF reporter robust z-score: 1.54; outcome: inactive

For CNGA3, what does the deposit list?
TNF reporter robust z-score: 1.36; outcome: inactive

What is on record for CNGA3?
TNF reporter robust z-score: 0.67; outcome: inactive

For CNGA3, how do the results read?
TNF reporter robust z-score: 1.02; outcome: inactive

With M6PR, what does the deposit list?
TNF reporter robust z-score: -0.02; outcome: inactive

With M6PR, how do the results read?
TNF reporter robust z-score: 0.88; outcome: inactive

How did the screen score M6PR?
TNF reporter robust z-score: -0.49; outcome: inactive

How did the screen score M6PR?
TNF reporter robust z-score: 0.36; outcome: inactive

What did the screen give for OR8B2?
TNF reporter robust z-score: 1.69; outcome: inactive

For OR8B2, how do the results read?
TNF reporter robust z-score: 1.15; outcome: inactive

What did the screen give for OR8B2?
TNF reporter robust z-score: 0.95; outcome: inactive

Which result is listed for OR8B2?
TNF reporter robust z-score: 1.39; outcome: inactive

For SPNS3, how do the results read?
TNF reporter robust z-score: -1.28; outcome: inactive

For SPNS3, what does the deposit list?
TNF reporter robust z-score: -1.21; outcome: inactive

With SPNS3, how do the results read?
TNF reporter robust z-score: -1.25; outcome: inactive

With SPNS3, how do the results read?
TNF reporter robust z-score: -1.04; outcome: inactive

Which result is listed for ST8SIA2?
TNF reporter robust z-score: -0.79; outcome: inactive

With ST8SIA2, how do the results read?
TNF reporter robust z-score: -1.3; outcome: inactive

How did the screen score ST8SIA2?
TNF reporter robust z-score: -0.39; outcome: inactive

With ST8SIA2, how do the results read?
TNF reporter robust z-score: -0.13; outcome: inactive

What is on record for AZU1?
TNF reporter robust z-score: -1.73; outcome: active

For AZU1, what was measured?
TNF reporter robust z-score: -1.55; outcome: active

How did the screen score AZU1?
TNF reporter robust z-score: -1.33; outcome: inactive

What is on record for AZU1?
TNF reporter robust z-score: -0.29; outcome: inactive

What did the screen give for ARL14?
TNF reporter robust z-score: -1.2; outcome: inactive

How did the screen score ARL14?
TNF reporter robust z-score: -0.8; outcome: inactive

How did the screen score ARL14?
TNF reporter robust z-score: -0.91; outcome: inactive

For UNC5A, how do the results read?
TNF reporter robust z-score: -1.55; outcome: active

With UNC5A, what does the deposit list?
TNF reporter robust z-score: -1.23; outcome: inactive

With UNC5A, what does the deposit list?
TNF reporter robust z-score: -1.88; outcome: active

With UNC5A, how do the results read?
TNF reporter robust z-score: -1.65; outcome: active

For LGALS1, what was measured?
TNF reporter robust z-score: -0.97; outcome: inactive

With LGALS1, what was measured?
TNF reporter robust z-score: 0.09; outcome: inactive

With LGALS1, what was measured?
TNF reporter robust z-score: 0.03; outcome: inactive

For LGALS1, what was measured?
TNF reporter robust z-score: 1.81; outcome: inactive

6 consecutive records from above, for reference:
NOL3: TNF reporter robust z-score = -1.89; outcome = active
NOL3: TNF reporter robust z-score = -1.23; outcome = inactive
MTTP: TNF reporter robust z-score = -0.26; outcome = inactive
MTTP: TNF reporter robust z-score = 0.99; outcome = inactive
MTTP: TNF reporter robust z-score = 0.77; outcome = inactive
MTTP: TNF reporter robust z-score = 0.4; outcome = inactive
